Data reported in PubChem BioAssay AID2685 (National Center for Advancing Translational Sciences (NCATS), 2010).
About 2,100 (0.66%) of roughly 320,000 compounds were called active. Inconclusive results, whose numbers are uncertain, are shown with a selection of clear calls. Calls follow the shape of the dose curve; as a rule, active = well fitted inhibition curve with a large enough effect in the signal ratio, with a control signal flat (not every such curve was filed as active); inconclusive = small, poorly fitted or top-dose-only effect, or effect the other way, or a change in a side signal; inactive = flat fitted curve, though single readings scatter; the % refers to the signal ratio. Potencies beside an inconclusive call are fits to weak or partial responses and may not hold up.

Assay: qHTS Assay for Lipid Storage Modulators in Drosophila S3 Cells
Settings: BODIPY lipid droplet fluorescence, 18-24 h, cells fed with added oleic acid; lipid storage change, negative = inhibition: at 46.1 µM (top of the series) unless noted
How it was run: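 Drosophila S3 cells loaded with oleic acid (400 uM, as added) and compounds at several concentrations; lipid droplets imaged by 488-nm laser-scanning cytometry, 500–530 nm intensity and object ratio to cell channel. Percent activity normalized to 20 uM Triacsin C.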
% is scaled to controls: 0 for no effect and ±100 for the full control effect; potency is read from the fitted curve at half-maximal effect.

**Q.** For CC1CC(C)CN(CCCNC(=O)c2nn(C)c3c2CS(=O)(=O)c2ccccc2-3)C1 (stereo not drawn), which lipid storage change, negative = inhibition is on record?
**A.** inconclusive: 59.9%

**Q.** For CCN(c1ccc(OC)cc1)S(=O)(=O)c1ccc2c(c1)NC(=O)CS2, which lipid storage change, negative = inhibition is on record?
**A.** inconclusive: -4.66%

**Q.** Which lipid storage change, negative = inhibition does the source give for COc1ccc(S(=O)(=O)Cc2ccc(C(=O)NC3CCCC3)o2)cc1 here?
**A.** inconclusive: 45.6%

**Q.** With Nc1cc(N)cc(C(=O)OCC(=O)Nc2cc(S(=O)(=O)N3CCCCC3)ccc2Cl)c1 as the compound, how does the lipid storage change, negative = inhibition read?
**A.** inconclusive: -0.0213%

**Q.** Which lipid storage change, negative = inhibition does the source give for O=C(NCCc1c[nH]c2ccccc12)C(=O)NCC1OCCCN1S(=O)(=O)c1ccccc1 (stereo not drawn) here?
**A.** inconclusive: 24%

**Q.** For CC(=O)N1CCc2cc(S(=O)(=O)NC(Cc3ccccc3)C(=O)NC3CCCCCC3)ccc21 (stereo not drawn), which Potency is on record?
**A.** inconclusive: 29.1 µM [falling, single point]

**Q.** With CC(=O)c1ccccc1NC(=O)COC(=O)C1CCCN1S(=O)(=O)c1ccccc1F (stereo not drawn) as the compound, how does the Potency read?
**A.** inconclusive: 29.1 µM [activator, single point]

**Q.** With COc1ccccc1C(C)NCC(=O)Nc1ccccc1C(F)(F)F (stereo not drawn) as the compound, how does the Potency read?
**A.** inconclusive: 29.1 µM [activator, single point]

**Q.** For CC(C)c1ccc(-c2nn(-c3ccccc3)cc2C(=O)NCC2CCCO2)cc1 (stereo not drawn), which lipid storage change, negative = inhibition is on record?
**A.** inconclusive

**Q.** With Cc1ccc(Cn2cc(-c3ccccc3)nn2)cc1 as the compound, how does the Potency read?
**A.** inconclusive: 0.82 µM [activator, full curve, poor fit]

**Q.** With O=C(NCC1CCCO1)c1cc(-c2ccccc2)nc2ccc(Br)cc12 (stereo not drawn) as the compound, how does the Potency read?
**A.** inconclusive: 13 µM [falling, partial curve, poor fit]

**Q.** For COC(=O)c1cc2c(=O)c3ccccc3oc2nc1/C=C/N(C)C, which lipid storage change, negative = inhibition is on record?
**A.** inconclusive: -33.9%

**Q.** Which lipid storage change, negative = inhibition does the source give for COc1ccc(N(CC(=O)N2CCC(C)CC2)S(=O)(=O)c2c(C)nn(C)c2C)cc1 here?
**A.** inconclusive: -1.49% [at 9.22 µM]

**Q.** Which lipid storage change, negative = inhibition does the source give for CCOC(=O)N1CCc2c(sc3nc4n(c(=O)c23)N=C(c2ccc(OC)cc2)CS4)C1 here?
**A.** inconclusive: 7.48%

**Q.** For CCOC(=O)c1ccc(NC(=O)c2nc[nH]c2C(=O)NCc2ccccc2)cc1, which Potency is on record?
**A.** inconclusive: 0.291 µM [falling, partial curve]

**Q.** Which Potency does the source give for CC(=O)c1cccc(NC(=O)C2CCCN(S(=O)(=O)c3ccccc3)C2)c1 (stereo not drawn) here?
**A.** inconclusive: 29.1 µM [activator, single point]

**Q.** With Cc1ccc(-n2c(-c3ccccc3)n[nH]c2=S)c(C)c1 as the compound, how does the lipid storage change, negative = inhibition read?
**A.** inconclusive: -15.8%

**Q.** With Cc1cccc(NC(=S)NC(=O)Cc2ccccc2)c1C as the compound, how does the lipid storage change, negative = inhibition read?
**A.** inconclusive: -4.26%

**Q.** With CCCCCCn1cc(C(=O)O)c(=O)c2ccccc21 as the compound, how does the lipid storage change, negative = inhibition read?
**A.** inconclusive: 60.1%

**Q.** Which lipid storage change, negative = inhibition does the source give for Cn1c(CC(=O)NNC(=O)c2cccnc2)nc2ccccc21 here?
**A.** inconclusive: -46.2%

**Q.** With Cc1ccc(S(=O)(=O)N(C)CC(=O)N2CCc3ccccc32)cc1 as the compound, how does the Potency read?
**A.** inconclusive: 7.31 µM [activator, partial curve, poor fit]

**Q.** With COc1ccc(-c2nc3ccccc3c(=O)n2CCOc2c(C)cccc2C)cc1 as the compound, how does the Potency read?
**A.** inconclusive: 0.259 µM [activator, full curve, poor fit]

**Q.** With Cc1ccc(CNCC(O)(c2ccccc2)c2ccc(F)cc2)cc1 (stereo not drawn) as the compound, how does the Potency read?
**A.** inconclusive: 29.1 µM [cytotoxic, single point]

**Q.** Which Potency does the source give for COc1cc(/C=C2/C(=N)N3C(=NC2=O)SN=C3S(C)(=O)=O)ccc1OS(=O)(=O)c1ccc(C)cc1 here?
**A.** inconclusive: 16.4 µM [activator, partial curve, poor fit]

**Q.** Which lipid storage change, negative = inhibition does the source give for Cc1cccc(NC(=O)C2c3ccccc3C(=O)N3CCc4ccccc4C23)n1 (stereo not drawn) here?
**A.** inconclusive: 2.34%

**Q.** Which lipid storage change, negative = inhibition does the source give for CCN=C1S/C(=C\c2cc(Cl)c(OC)c(OC)c2)C(=O)N1CC here?
**A.** inconclusive: 11.3%

**Q.** With CCc1cc(-c2onc(C)c2-c2cscn2)c(O)cc1OC as the compound, how does the Potency read?
**A.** inconclusive: 29.1 µM [rising, single point]

**Q.** For CCN(CC)CCOCCOc1ccccc1F, which lipid storage change, negative = inhibition is on record?
**A.** inconclusive: -5.02%

**Q.** Which lipid storage change, negative = inhibition does the source give for O=C(Nc1ccc(C(F)(F)F)cc1)c1ccc(NC(=O)C2CCCO2)cc1 (stereo not drawn) here?
**A.** inconclusive: -9.3%

**Q.** With CN1CCN(/C=N/c2sc3c(c2C#N)CCCCC3)CC1 as the compound, how does the lipid storage change, negative = inhibition read?
**A.** inconclusive: 4.9%

**Q.** Which lipid storage change, negative = inhibition does the source give for COc1cccc(C(O)c2cnc(C(C)C)n2C)c1OC (stereo not drawn) here?
**A.** inconclusive: 2.75%

**Q.** With Cc1cc(C)c2nc(NC3=NCN(CCN4CCOCC4)CN3)nc(C)c2c1 as the compound, how does the Potency read?
**A.** active: 25.9 µM

**Q.** For COc1ccc(C(CNC(=O)COc2c(C)cc(C)cc2C)N2CCOCC2)cc1 (stereo not drawn), which Potency is on record?
**A.** inconclusive: 29.1 µM [activator, single point]

**Q.** With Cc1ccc(NC(=O)C(=O)NCCOc2ccc(Cl)cc2)c(C)c1 as the compound, how does the lipid storage change, negative = inhibition read?
**A.** inconclusive: 11%

**Q.** With Cc1[nH]n(C(N)=S)c(=O)c1N=Nc1ccc(Br)cc1 as the compound, how does the Potency read?
**A.** inconclusive: 29.1 µM [falling, single point]

**Q.** Which lipid storage change, negative = inhibition does the source give for CC(C)n1c(O)c(/C=C2\C=Nc3ccccc32)sc1=Nc1ccccc1 here?
**A.** inconclusive: -12.9%

**Q.** Which lipid storage change, negative = inhibition does the source give for CC(C(=O)NCCN1C(=O)S/C(=C\c2cccnc2)C1=O)N1C(=O)c2ccccc2C1=O (stereo not drawn) here?
**A.** inconclusive: -40.8%

**Q.** For O=c1[nH]c2cc3c(cc2cc1CN(CC1CCCO1)S(=O)(=O)c1ccccc1)OCCO3 (stereo not drawn), which Potency is on record?
**A.** inconclusive: 8.2 µM [activator, partial curve]

**Q.** For N/C(=N\OC(=O)c1ccc(Cl)cc1[N+](=O)[O-])c1cccnc1, which Potency is on record?
**A.** inconclusive: 29.1 µM [cytotoxic, single point]

**Q.** For CNC(=O)CNC(=O)Nc1ccc(C)cc1, which lipid storage change, negative = inhibition is on record?
**A.** inconclusive: -5.02%

**Q.** For Cc1ccc(N2CCN(S(=O)(=O)N3CCCCCC3)CC2)cc1Cl, which “lipid storage change, negative = inhibition” value is on record?
**A.** inactive: 2.16%

**Q.** With CCNC(=O)CN1C(=O)NC(Cc2ccccc2)(Cc2ccccc2)C1=O as the compound, how does the Potency read?
**A.** inconclusive: 1.84 µM [activator, full curve, poor fit]

**Q.** With N=c1c(C(=O)NCc2ccc3c(c2)OCO3)cc2c(=O)n3ccccc3nc2n1Cc1cccnc1 as the compound, how does the lipid storage change, negative = inhibition read?
**A.** inconclusive: -76%

**Q.** With COc1ccc(CC(=O)Nc2ccc(C(=O)O)cc2NC(=O)Cc2ccc(OC)cc2)cc1 as the compound, how does the lipid storage change, negative = inhibition read?
**A.** inconclusive: -22.4%

**Q.** For CC(=O)NC12CC3CC(C1)CC(C(=O)N(C)CC(=O)Nc1ccc(F)c(F)c1F)(C3)C2, which lipid storage change, negative = inhibition is on record?
**A.** inconclusive: 34.8%

**Q.** Which Potency does the source give for CCC(C)(C)NC(=O)C(c1ccco1)N(C(=O)c1csnn1)c1cccc(F)c1 (stereo not drawn) here?
**A.** inconclusive: 29.1 µM [falling, single point]

**Q.** Which Potency does the source give for CN(C)CCCN1C(=O)c2cccc3c([N+](=O)[O-])ccc(c23)C1=O here?
**A.** inconclusive: 29.1 µM [cytotoxic, single point]

**Q.** For CC(C)Oc1cc(NC(=O)CSCC(=O)Nc2cccc(C(F)(F)F)c2)c(Cl)cc1Cl, which Potency is on record?
**A.** inconclusive: 29.1 µM [falling, single point]

**Q.** For Cc1ccnc2nc(C(=O)OCC(=O)NCc3cccc(Cl)c3)nn12, which Potency is on record?
**A.** inconclusive: 1.64 µM [falling, partial curve]

**Q.** For COC(=O)c1cc2ccsc2n1CC(=O)N1CCCc2ccccc21, which lipid storage change, negative = inhibition is on record?
**A.** inconclusive: 5.68%

**Q.** With Cc1cc(C)n2nc(C(=O)Nc3nnc(C4CC4)s3)nc2n1 as the compound, how does the lipid storage change, negative = inhibition read?
**A.** inconclusive: -6.08%

**Q.** With O=C(O)C1C(c2ccccc2)C(C(=O)OCc2ccco2)C1c1ccccc1 (stereo not drawn) as the compound, how does the lipid storage change, negative = inhibition read?
**A.** inconclusive: -38.8%

**Q.** For Cc1ccc(N(Cc2ccccc2)C(=O)c2cccc(F)c2)cc1, which lipid storage change, negative = inhibition is on record?
**A.** inconclusive: -13.9%

**Q.** With CCCn1c(=O)c2ccccc2n2c(SCCOc3ccccc3)nnc12 as the compound, how does the lipid storage change, negative = inhibition read?
**A.** inconclusive: 15%

**Q.** Which Potency does the source give for CCN(CCO)c1ncnc2c1sc1nc(CC(C)C)c3c(c12)CC(C)(C)OC3 here?
**A.** inconclusive: 20.6 µM [activator, single point]

**Q.** With COc1ccc(Oc2ccc(/C=N/NC(=O)c3cccnc3)cc2[N+](=O)[O-])cc1 as the compound, how does the lipid storage change, negative = inhibition read?
**A.** inconclusive: 40.1%

**Q.** For CCOc1ccc(NC(=O)N(C2CCCCC2)C(C)c2cccnc2)cc1 (stereo not drawn), which Potency is on record?
**A.** inconclusive: 1.3 µM [activator, partial curve]

**Q.** For Cc1ccc(F)cc1NS(=O)(=O)c1ccc(Cl)s1, which lipid storage change, negative = inhibition is on record?
**A.** inconclusive: 11.4%

**Q.** With COC(=O)c1sc(N2CCN(Cc3ccccc3)CC2)nc1N as the compound, how does the lipid storage change, negative = inhibition read?
**A.** inconclusive: 15.7%

**Q.** Which lipid storage change, negative = inhibition does the source give for CC(C)C(=O)N1CCC(n2nccc2NC(=O)CCc2ccccc2)CC1 here?
**A.** inconclusive: 16.7%

**Q.** With CCOc1ccc(S(=O)(=O)N2CCc3cc(OC)c(OC)cc3C2)cc1 as the compound, how does the Potency read?
**A.** inconclusive: 18.4 µM [activator, single point]

**Q.** With Cc1c(C2Nc3ccccc3NC3=C2C(=O)CC(C)(C)C3)cnn1C (stereo not drawn) as the compound, how does the lipid storage change, negative = inhibition read?
**A.** inconclusive: -15.1%

**Q.** With Clc1ccc(-n2nnnc2CN2CCOCC2)cc1 as the compound, how does the lipid storage change, negative = inhibition read?
**A.** inconclusive: 28.8%

**Q.** For Cc1cccc(C(C)C)c1NC(=O)COC(=O)CNS(=O)(=O)c1ccccc1, which Potency is on record?
**A.** inconclusive: 29.1 µM [activator, single point]

**Q.** For COCCNC(=O)c1ccccc1NC(=O)c1ccccc1N(C)S(=O)(=O)c1ccc(C)cc1, which lipid storage change, negative = inhibition is on record?
**A.** inconclusive: 9.43% [cytotoxic]

**Q.** With CC1(C)C2CCC1(C)C(OC(=O)CNc1ccccc1)C2 (stereo not drawn) as the compound, how does the Potency read?
**A.** inconclusive: 0.82 µM [falling, single point]

**Q.** For O=C1CCC(=O)N1OCCCOc1ccccc1, which Potency is on record?
**A.** inconclusive: 0.0046 µM [falling, full curve, poor fit]

**Q.** For O=C(Nc1ccccc1C(=O)O)c1cccc(NS(=O)(=O)c2ccc(Br)cc2)c1, which Potency is on record?
**A.** inconclusive: 14.6 µM [activator, partial curve]

**Q.** For Cc1ccccc1CN1CCN(S(=O)(=O)c2cccc3nsnc23)CC1, which Potency is on record?
**A.** inconclusive: 16.4 µM [falling, single point]

**Q.** Which lipid storage change, negative = inhibition does the source give for O=C(O)c1cc(N/N=C/c2ccc(N3CCOCC3)cc2)ccc1Cl here?
**A.** inconclusive: -16.6%

**Q.** Which lipid storage change, negative = inhibition does the source give for CCc1noc(C)c1C(=O)NCCc1ccc(OC)c(OC)c1 here?
**A.** inconclusive: 13.8%

**Q.** Which lipid storage change, negative = inhibition does the source give for Cc1n[nH]c(=O)c2c(NC(=O)CSc3nncn3C(C)C)oc(C)c12 here?
**A.** inconclusive: 6.54%

**Q.** With O=C(NCc1cccs1)c1ccc(Cl)c(S(=O)(=O)N2CCCC2)c1 as the compound, how does the lipid storage change, negative = inhibition read?
**A.** inconclusive: 42.6%
